Results from patent EP1350523B1 (priority 1992, dated 1994).

System: vascular smooth muscle cells
Test: 24 hour 3H-thymidine DNA synthesis inhibition assay compared with 24 hour 3H-leucine protein inhibition assay
Assay type: cell-based
Conditions: Example 8, Figs. 10A-10C
Method: The ability of various therapeutic agents to inhibit DNA synthesis and protein synthesis in vascular smooth muscle cells was tested. ^3H-leucine and ^3H-thymidine uptake and cytotoxicity assays were conducted in accordance with the following protocols.
3H-leucine uptake: Vascular smooth muscle cells at 40,000 cells/ml were seeded in sterile 24 well plates at 1ml/well. The plates were incubated overnight at 37°C, 5% CO2, 95% air in a humidified atmosphere (saturation). Log dilutions of the therapeutic agent of interest were incubated with the vascular smooth muscle cells for 5 minutes or 24 hours. […] Vials were counted on a Beckman LS2800 Liquid Scintillation Counter interfaced with Beckman "Data Capture" software for conversion to a Lotus 1-2-3® file and analysis using Lotus 1-2-3®.
^3H-thymidine uptake: Vascular smooth muscle cells were incubated in complete media with 5% FBS (Gibco) overnight at 37°C in a humidified, 5% CO2 environment in sterile 24 well plates. […] The cells were visually scored for viability and cell number. […] Vials were counted on a Beckman LS2800 Liquid Scintillation Counter interfaced with Beckman "Data Capture" software for conversion to a Lotus 1-2-3° file and analysis using Lotus 1-2-30®. […]

SMILES: CN[C@@H]1C[C@H]2O[C@@](C)([C@@H]1OC)n1c3ccccc3c3c4c(c5c6ccccc6n2c5c31)C(=O)NC4 [staurosporin]
- protein synthesis inhibition and cytotoxicity at concentrations where significant DNA synthesis inhibition occurs: minimal protein synthesis inhibition and cytotoxicity
